Measured values taken from publication PMC6172191.
No constants are given. Whether binding was seen depends on the method and setting. Binding seen in cells or lysates may run through a third protein. These calls come from enrichment with a bait or labelling near it, and not all partners need be listed.

The chains behind the UniProt entries cited, without tags or fusion partners.
UniProt O75131: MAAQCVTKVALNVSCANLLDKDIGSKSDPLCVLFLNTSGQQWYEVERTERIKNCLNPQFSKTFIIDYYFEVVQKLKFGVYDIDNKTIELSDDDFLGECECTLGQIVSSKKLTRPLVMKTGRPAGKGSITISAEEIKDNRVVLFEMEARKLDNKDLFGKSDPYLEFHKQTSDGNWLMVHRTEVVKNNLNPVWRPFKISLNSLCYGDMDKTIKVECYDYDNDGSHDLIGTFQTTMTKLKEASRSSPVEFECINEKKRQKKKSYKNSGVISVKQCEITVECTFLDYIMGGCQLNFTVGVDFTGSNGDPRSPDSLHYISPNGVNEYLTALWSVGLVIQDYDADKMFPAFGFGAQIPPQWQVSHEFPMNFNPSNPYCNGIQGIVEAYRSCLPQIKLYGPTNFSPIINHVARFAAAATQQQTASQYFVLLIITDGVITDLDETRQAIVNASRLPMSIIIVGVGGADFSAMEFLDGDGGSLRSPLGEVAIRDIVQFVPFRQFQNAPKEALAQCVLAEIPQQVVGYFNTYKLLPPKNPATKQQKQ

Biological target: T1, EMP1 intracellular loop peptide (…) (human)
T1 sequence (peptide): FTMEKGNRF
Test: affinity purification with mass spectrometry; peptide on CNBr-activated Sepharose 4B beads in LNCaP cell lysates, 16 h at 4 °C; SDS-PAGE, Coomassie, band excised, tandem mass spectrometry; uncoated beads as control; only the target purified

copine-III (endogenous) (from UniProt O75131 1-537)
binding: binds
